## Assay results

Data taken from PubChem BioAssay AID504749, deposited by NCATS (2011).

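A panel of P. falciparum strains inside erythrocytes is exposed to compounds for three days, then a DNA-binding dye reports the amount of parasite DNA. Each compound was titrated across a series from about 0.000037 to 29 µM. The number is the fitted AC50, the concentration giving a half-maximal change in signal; a lower value means higher potency, whether the curve shows a decrease or an increase. Calls follow the curve class and fit quality: every row here is inconclusive, covering signal-raising curves and weak, poorly fitted, partial or highest-dose-only inhibition curves.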

Values are in µM. Every entry below has the call inconclusive. These entries are mostly ones the record files as inconclusive; other results of the assay are not listed here. A potency from a partial, single-point or poor curve is only a rough figure. The first word of each remark tells which way the curve ran; it can be opposite to the aim of the assay.

Compound | condition | fitted potency (µM) | remark
Oc1cc2cc(CCN3CCN(c4nsc5ccccc45)CC3)c(Cl)cc2[nH]1 | CP286 | 15.85 | inhibitor, single point
Oc1cc2cc(CCN3CCN(c4nsc5ccccc45)CC3)c(Cl)cc2[nH]1 | CP291 | 19.01 | inhibitor, single point
Oc1cc2cc(CCN3CCN(c4nsc5ccccc45)CC3)c(Cl)cc2[nH]1 | CP268 | 0.3381 | activator, full curve, poor fit
Oc1cc2cc(CCN3CCN(c4nsc5ccccc45)CC3)c(Cl)cc2[nH]1 | CP335 | 9.528 | inhibitor, single point
Oc1cc2cc(CCN3CCN(c4nsc5ccccc45)CC3)c(Cl)cc2[nH]1 | CP191 | 17.78 | inhibitor, single point
Oc1cc2cc(CCN3CCN(c4nsc5ccccc45)CC3)c(Cl)cc2[nH]1 | PAD | 17.78 | inhibitor, single point
Oc1cc2cc(CCN3CCN(c4nsc5ccccc45)CC3)c(Cl)cc2[nH]1 | HB3 | 11.22 | inhibitor, partial curve
C1CCC(C(CC2CCCCN2)C2CCCCC2)CC1 (stereo not given) | CP305 | 12 | inhibitor, single point
C1CCC(C(CC2CCCCN2)C2CCCCC2)CC1 (stereo not given) | CP238 | 10 | inhibitor, single point
C1CCC(C(CC2CCCCN2)C2CCCCC2)CC1 (stereo not given) | DIV30 | 0.6012 | inhibitor, full curve, poor fit
C1CCC(C(CC2CCCCN2)C2CCCCC2)CC1 (stereo not given) | CP215 | 19.01 | inhibitor, single point
C1CCC(C(CC2CCCCN2)C2CCCCC2)CC1 (stereo not given) | CP201 | 19.01 | inhibitor, single point
C1CCC(C(CC2CCCCN2)C2CCCCC2)CC1 (stereo not given) | FAB9 | 11.22 | inhibitor, single point
C1CCC(C(CC2CCCCN2)C2CCCCC2)CC1 (stereo not given) | CP325 | 19.01 | inhibitor, partial curve, poor fit
C1CCC(C(CC2CCCCN2)C2CCCCC2)CC1 (stereo not given) | CP329 | 19.01 | inhibitor, single point
C1CCC(C(CC2CCCCN2)C2CCCCC2)CC1 (stereo not given) | CP192 | 19.01 | inhibitor, single point
C1CCC(C(CC2CCCCN2)C2CCCCC2)CC1 (stereo not given) | CP203 | 15.1 | inhibitor, single point
C1CCC(C(CC2CCCCN2)C2CCCCC2)CC1 (stereo not given) | CP265 | 12.59 | inhibitor, single point
C1CCC(C(CC2CCCCN2)C2CCCCC2)CC1 (stereo not given) | CP315 | 19.01 | inhibitor, single point
C1CCC(C(CC2CCCCN2)C2CCCCC2)CC1 (stereo not given) | CP211 | 19.01 | inhibitor, single point
CC(C)[N+](C)(C)CC(O)COc1cccc2ccccc12 (stereo not given) | TAB109 | 8.912 | inhibitor, partial curve
CC(C)[N+](C)(C)CC(O)COc1cccc2ccccc12 (stereo not given) | CP286 | 14.13 | inhibitor, single point
CC(C)[N+](C)(C)CC(O)COc1cccc2ccccc12 (stereo not given) | CP260 | 10 | inhibitor, single point
CC(C)[N+](C)(C)CC(O)COc1cccc2ccccc12 (stereo not given) | CP185 | 17.78 | inhibitor, single point
CC(C)[N+](C)(C)CC(O)COc1cccc2ccccc12 (stereo not given) | AA1029 | 15.85 | inhibitor, single point
CC(C)[N+](C)(C)CC(O)COc1cccc2ccccc12 (stereo not given) | C2A | 12.59 | inhibitor, single point
CC(C)[N+](C)(C)CC(O)COc1cccc2ccccc12 (stereo not given) | CP215 | 19.01 | inhibitor, single point
CC(C)[N+](C)(C)CC(O)COc1cccc2ccccc12 (stereo not given) | DFO2036 | 12.59 | inhibitor, single point
CC(C)[N+](C)(C)CC(O)COc1cccc2ccccc12 (stereo not given) | 3D7 | 17.78 | inhibitor, single point
CC(C)[N+](C)(C)CC(O)COc1cccc2ccccc12 (stereo not given) | 7G8 | 10 | inhibitor, partial curve
CC(C)[N+](C)(C)CC(O)COc1cccc2ccccc12 (stereo not given) | GB4 | 13.46 | inhibitor, single point
CC(C)[N+](C)(C)CC(O)COc1cccc2ccccc12 (stereo not given) | TAB165 | 17.78 | inhibitor, single point
CC(C)[N+](C)(C)CC(O)COc1cccc2ccccc12 (stereo not given) | CP191 | 17.78 | inhibitor, single point
CC(C)[N+](C)(C)CC(O)COc1cccc2ccccc12 (stereo not given) | CP291 | 10.69 | inhibitor, partial curve, poor fit
CC(C)[N+](C)(C)CC(O)COc1cccc2ccccc12 (stereo not given) | ECU | 1.122 | inhibitor, partial curve
CC(C)[N+](C)(C)CC(O)COc1cccc2ccccc12 (stereo not given) | P93_24 | 10 | inhibitor, single point
CC(C)[N+](C)(C)CC(O)COc1cccc2ccccc12 (stereo not given) | CP315 | 19.01 | inhibitor, partial curve, poor fit
CC(C)[N+](C)(C)CC(O)COc1cccc2ccccc12 (stereo not given) | CP237 | 17.78 | inhibitor, single point
COc1cc2c(cc1OC)C(=O)C(CC1CCN(Cc3ccccc3)CC1)C2 (stereo not given) | ATS189 | 10 | inhibitor, partial curve
COc1cc2c(cc1OC)C(=O)C(CC1CCN(Cc3ccccc3)CC1)C2 (stereo not given) | TAB165 | 11.22 | inhibitor, single point
COc1cc2c(cc1OC)C(=O)C(CC1CCN(Cc3ccccc3)CC1)C2 (stereo not given) | CP238 | 12.59 | inhibitor, partial curve
COc1cc2c(cc1OC)C(=O)C(CC1CCN(Cc3ccccc3)CC1)C2 (stereo not given) | ICS | 12.59 | inhibitor, single point
COc1cc2c(cc1OC)C(=O)C(CC1CCN(Cc3ccccc3)CC1)C2 (stereo not given) | GB4 | 10.69 | inhibitor, partial curve
COc1cc2c(cc1OC)C(=O)C(CC1CCN(Cc3ccccc3)CC1)C2 (stereo not given) | CP217 | 8.912 | inhibitor, partial curve
CCC(=O)c1ccc2c(c1)N(CCCN(C)C)c1ccccc1S2 | PC15 | 5.012 | inhibitor, partial curve
CCC(=O)c1ccc2c(c1)N(CCCN(C)C)c1ccccc1S2 | TAB113 | 8.912 | inhibitor, partial curve, poor fit

Repeated from the top, 3 entries:

{"compound": "Oc1cc2cc(CCN3CCN(c4nsc5ccccc45)CC3)c(Cl)cc2[nH]1", "condition": "CP286", "fitted potency (µM)": "15.85", "remark": "inhibitor, single point"}
{"compound": "Oc1cc2cc(CCN3CCN(c4nsc5ccccc45)CC3)c(Cl)cc2[nH]1", "condition": "CP291", "fitted potency (µM)": "19.01", "remark": "inhibitor, single point"}
{"compound": "Oc1cc2cc(CCN3CCN(c4nsc5ccccc45)CC3)c(Cl)cc2[nH]1", "condition": "CP268", "fitted potency (µM)": "0.3381", "remark": "activator, full curve, poor fit"}